From paper PMC8067559 come the findings set out here.

Assay [1] concerns the target T1, leucyl-tRNA synthetase 2 with a hexa-histidine tag (LeuRS2-(His)6) (Arabidopsis thaliana) (UniProt F4I116).
T1 sequence: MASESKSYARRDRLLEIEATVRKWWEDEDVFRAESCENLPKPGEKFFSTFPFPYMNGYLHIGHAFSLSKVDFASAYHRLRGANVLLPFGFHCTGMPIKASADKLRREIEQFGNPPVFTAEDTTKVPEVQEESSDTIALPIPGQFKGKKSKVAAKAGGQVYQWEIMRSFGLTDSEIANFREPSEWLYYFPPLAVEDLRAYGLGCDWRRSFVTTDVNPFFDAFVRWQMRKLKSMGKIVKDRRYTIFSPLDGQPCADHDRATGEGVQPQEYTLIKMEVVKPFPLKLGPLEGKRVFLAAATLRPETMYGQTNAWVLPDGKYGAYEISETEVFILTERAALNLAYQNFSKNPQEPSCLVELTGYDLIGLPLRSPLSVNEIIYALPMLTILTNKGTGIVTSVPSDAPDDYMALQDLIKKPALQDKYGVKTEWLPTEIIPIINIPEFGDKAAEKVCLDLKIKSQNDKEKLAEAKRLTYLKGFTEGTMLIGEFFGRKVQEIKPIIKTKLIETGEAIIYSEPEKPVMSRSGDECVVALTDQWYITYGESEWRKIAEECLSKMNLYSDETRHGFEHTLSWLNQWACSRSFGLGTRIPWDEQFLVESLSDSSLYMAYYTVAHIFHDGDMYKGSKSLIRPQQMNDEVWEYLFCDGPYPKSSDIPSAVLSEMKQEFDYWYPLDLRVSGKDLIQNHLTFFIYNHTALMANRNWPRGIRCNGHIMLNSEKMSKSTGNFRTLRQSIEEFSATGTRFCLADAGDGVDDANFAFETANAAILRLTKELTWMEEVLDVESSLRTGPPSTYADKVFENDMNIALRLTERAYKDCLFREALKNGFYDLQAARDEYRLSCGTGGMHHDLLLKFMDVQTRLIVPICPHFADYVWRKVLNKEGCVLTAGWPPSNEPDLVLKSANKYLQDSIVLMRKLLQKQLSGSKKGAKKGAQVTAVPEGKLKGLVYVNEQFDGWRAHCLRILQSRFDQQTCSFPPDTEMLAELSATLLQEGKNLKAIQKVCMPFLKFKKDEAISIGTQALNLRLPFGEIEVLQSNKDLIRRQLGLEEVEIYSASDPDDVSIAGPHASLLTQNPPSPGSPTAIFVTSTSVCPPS
Briefly: pull-down; His6-tagged precursor added to isolated Arabidopsis mitochondria, import at 8 °C to arrest translocation intermediates; mitochondria ruptured, OM–IM fraction from 20–38% sucrose gradient solubilised with maltoside; Ni-NTA agarose; co-purifying bands by SDS-PAGE, Coomassie or silver staining and protein sequencing; only the target purified.

Assay [2] addresses T1, leucyl-tRNA synthetase 2 with a hexa-histidine tag (LeuRS2-(His)6) (Arabidopsis thaliana). Briefly: cross-linking; DTNB-activated LeuRS2-(His)6 cross-linked to mitochondrial proteins during import; affinity purification of crosslink products from SDS-dissociated OM–IM fractions; ≈160 kDa product cleaved with 2-mercaptoethanol; only the target purified.
Assay [3] shares this target. Briefly: co-IP; co-immunoprecipitation from the DTNB crosslink product of LeuRS2-(His)6 (Figure S2); antibodies and conditions not shown; only the target purified.

No constants are given. Whether binding was seen depends on the method and setting. Binding seen in cells or lysates may run through a third protein. Some entries that bind do so weakly or less than the wild type. Sequences can lack the tags named with a protein.

B1: TIM10 (protein, UniProt Q9ZW33 1-83)
chain: MASPIPVGVTKEQAFSMAQTEMEYRVELFNKLAQTCFNKCVDKRYKEAELNMGENSCIDRCVSKYWQVNGMVGQLLSAGKPPV
Consider B1, for which the binding entry in assay [1] and in assay [2] was “binds” each time.

B2: TIM9 (protein, UniProt Q9XGX9 1-93)
chain: MDASMMAGLDGLPEEDKAKMASMIDQLQLRDSLRMYNSLVERCFVDCVDSFTRKSLQKQEETCVMRCAEKFLKHTMRVGMRFAELNQNAPTQD
In the case of B2, the binding entry in assay [1] and in assay [2] was “binds” in each case.

B3: TIM8 (protein, UniProt Q9XGY4 1-77)
chain: MDPSMANNPELLQFLAQEKERAMVNEMVSKMTSVCWDKCITSAPGSKFSSSESSCLTHCAQRYMDMSMIIMKRFNSQ
On to B3, for which the binding result in assay [1] and in assay [2] was “binds” in each case.

B4: HP30-2 (hypothetical protein of 30 kDa) (protein, UniProt Q9FLT9 1-259)
chain: MGKDGEGDKKRETMAVMSLMKDQQNPIQQFQVKFKEIETGFKSWLSKQKLPVEAAVVTAMGGVQGAFIGGLMGTLSPEMPQAGIDPQAMASLKQTQALVGGPLVQARNFAAITGVNAGIACVMKRIRGKEDLESAVVAAFGSGVAYSLVSAGLQGQPMNAITTAAGFAVFQGVFFKLGERFSKPSVEDPYYTRGRSMLLKLGLEKYEKNFKKGLLADPTLPLLTDSALRDVSIPPGPRLLILDHIQRDPELKGKRGSRG
In the case of B4, the binding entry in assay [1], in assay [2] and in assay [3] was “binds” throughout.
